Assay: Emission spectra after excitation at 600 nm: inhibition of the fluorophore's fluorescence in the intact substrate
Assay type: physicochemical
Details: excitation 600 nm

Substance: Gal(N-Cy5)-QSY® 21 [compound of formula (8b)]
- inhibition of the fluorescence of the fluorophore (compared with Cy5 alone): 99.8%

Substance: Gal(N-QSY® 21)-Alexa Fluoro 633 [compound of formula (8a)]
- inhibition of the fluorescence of the fluorophore (compared with Alexa Fluor 633 alone): 99.2%

Source: US8513394B2, “Saccharide fluorescent substrates, preparation method and uses thereof” (Commissariat a l'Energie Atomique, priority 2005, dated 2013)
